Source: publication doi:10.1101/792994
These are yes or no findings as the source states them, for the method shown. Binding seen in cells or lysates may run through a third protein. A yes stands for co-enrichment or nearness to the bait. Other partners may have been found. Where a sequence is shown, tags or fusion partners need not be part of it.

Chains of the proteins cited; added tags and fusions are not shown.
UniProt O60573: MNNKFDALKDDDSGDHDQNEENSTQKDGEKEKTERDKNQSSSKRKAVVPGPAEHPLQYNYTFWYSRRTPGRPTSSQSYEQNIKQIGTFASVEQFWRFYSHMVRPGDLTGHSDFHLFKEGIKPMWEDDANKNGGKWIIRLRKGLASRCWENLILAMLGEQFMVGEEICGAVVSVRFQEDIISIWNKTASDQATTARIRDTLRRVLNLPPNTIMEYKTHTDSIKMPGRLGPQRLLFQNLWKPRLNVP

T1: FLAG-tagged ZNF598 (human) (UniProt Q86UK7)
T1 sequence: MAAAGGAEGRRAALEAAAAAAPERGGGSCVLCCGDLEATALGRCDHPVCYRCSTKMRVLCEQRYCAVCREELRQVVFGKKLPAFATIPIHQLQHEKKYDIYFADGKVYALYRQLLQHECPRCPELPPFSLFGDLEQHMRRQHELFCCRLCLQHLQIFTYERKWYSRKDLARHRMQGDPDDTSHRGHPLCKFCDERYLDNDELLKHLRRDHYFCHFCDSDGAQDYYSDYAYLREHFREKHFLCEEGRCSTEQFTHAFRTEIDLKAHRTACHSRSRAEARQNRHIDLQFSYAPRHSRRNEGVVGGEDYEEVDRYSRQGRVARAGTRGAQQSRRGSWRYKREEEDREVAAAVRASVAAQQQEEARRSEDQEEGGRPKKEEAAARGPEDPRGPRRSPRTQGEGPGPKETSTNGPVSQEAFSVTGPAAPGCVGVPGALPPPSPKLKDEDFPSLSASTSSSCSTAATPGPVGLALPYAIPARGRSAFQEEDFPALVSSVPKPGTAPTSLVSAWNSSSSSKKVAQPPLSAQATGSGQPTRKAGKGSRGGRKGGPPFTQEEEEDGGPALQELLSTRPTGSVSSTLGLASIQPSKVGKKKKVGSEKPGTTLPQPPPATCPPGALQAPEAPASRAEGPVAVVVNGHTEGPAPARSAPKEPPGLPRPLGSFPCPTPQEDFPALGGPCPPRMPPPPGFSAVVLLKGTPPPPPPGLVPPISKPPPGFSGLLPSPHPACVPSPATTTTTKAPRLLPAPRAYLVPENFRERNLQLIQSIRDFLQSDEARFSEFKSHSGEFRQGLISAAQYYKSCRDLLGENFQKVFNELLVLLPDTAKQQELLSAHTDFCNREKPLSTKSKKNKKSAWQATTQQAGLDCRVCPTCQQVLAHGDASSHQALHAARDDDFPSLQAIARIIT


Target: T1, FLAG-tagged ZNF598 (human)
Test: affinity purification with mass spectrometry

Row | Molecule | binding
1 | 4EHP (from UniProt O60573 1-245) | binds
2 | GIGYF2 (protein, UniProt Q6Y7W6 1-1299) MAAETQTLNFGPEWLRALSSGGSITSPPLSPALPKYKLADYRYGREEMLALFLKDNKIPSDLLDKEFLPILQEEPLPPLALVPFTEEEQRNFSMSVNSAAVLRLTGRGGGGTVVGAPRGRSSSRGRGRGRGECGFYQRSFDEVEGVFGRGGGREMHRSQSWEERGDRRFEKPGRKDVGRPNFEEGGPTSVGRKHEFIRSESENWRIFREEQNGEDEDGGWRLAGSRRDGERWRPHSPDGPRSAGWREHMERRRRFEFDFRDRDDERGYRRVRSGSGSIDDDRDSLPEWCLEDAEEEMGTFDSSGAFLSLKKVQKEPIPEEQEMDFRPVDEGEECSDSEGSHNEEAKEPDKTNKKEGEKTDRVGVEASEETPQTSSSSARPGTPSDHQSQEASQFERKDEPKTEQTEKAEEETRMENSLPAKVPSRGDEMVADVQQPLSQIPSDTASPLLILPPPVPNPSPTLRPVETPVVGAPGMGSVSTEPDDEEGLKHLEQQAEKMVAYLQDSALDDERLASKLQEHRAKGVSIPLMHEAMQKWYYKDPQGEIQGPFNNQEMAEWFQAGYFTMSLLVKRACDESFQPLGDIMKMWGRVPFSPGPAPPPHMGELDQERLTRQQELTALYQMQHLQYQQFLIQQQYAQVLAQQQKAALSSQQQQQLALLLQQFQTLKMRISDQNIIPSVTRSVSVPDTGSIWELQPTASQPTVWEGGSVWDLPLDTTTPGPALEQLQQLEKAKAAKLEQERREAEMRAKREEEERKRQEELRRQQEEILRRQQEEERKRREEEELARRKQEEALRRQREQEIALRRQREEEERQQQEEALRRLEERRREEEERRKQEELLRKQEEEAAKWAREEEEAQRRLEENRLRMEEEAARLRHEEEERKRKELEVQRQKELMRQRQQQQEALRRLQQQQQQQQLAQMKLPSSSTWGQQSNTTACQSQATLSLAEIQKLEEERERQLREEQRRQQRELMKALQQQQQQQQQKLSGWGNVSKPSGTTKSLLEIQQEEARQMQKQQQQQQQHQQPNRARNNTHSNLHTSIGNSVWGSINTGPPNQWASDLVSSIWSNADTKNSNMGFWDDAVKEVGPRNSTNKNKNNASLSKSVGVSNRQNKKVEEEEKLLKLFQGVNKAQDGFTQWCEQMLHALNTANNLDVPTFVSFLKEVESPYEVHDYIRAYLGDTSEAKEFAKQFLERRAKQKANQQRQQQQLPQQQQQQPPQQPPQQPQQQDSVWGMNHSTLHSVFQTNQSNNQQSNFEAVQSGKKKKKQKMVRADPSLLGFSVNASSERLNMGEIETLDDY | binds
